This assay addresses T1, thioredoxin-interacting protein (TXNIP) (rat (endogenous in rat NP cells)) (UniProt Q5M7W1).
T1 sequence: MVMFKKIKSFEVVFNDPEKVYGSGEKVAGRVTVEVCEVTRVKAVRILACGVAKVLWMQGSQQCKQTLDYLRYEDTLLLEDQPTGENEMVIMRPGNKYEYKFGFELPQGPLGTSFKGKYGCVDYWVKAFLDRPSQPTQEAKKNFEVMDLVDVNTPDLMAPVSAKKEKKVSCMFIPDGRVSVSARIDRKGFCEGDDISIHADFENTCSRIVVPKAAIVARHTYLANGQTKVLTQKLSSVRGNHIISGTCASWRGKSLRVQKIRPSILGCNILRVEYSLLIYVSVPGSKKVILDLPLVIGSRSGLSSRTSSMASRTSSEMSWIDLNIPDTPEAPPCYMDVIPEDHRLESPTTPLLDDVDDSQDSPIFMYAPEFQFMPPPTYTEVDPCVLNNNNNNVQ
As to the kind of experiment: co-IP; Pierce Classic Magnetic Co-IP kit; lysates of rat NP cells incubated with anti-TXNIP antibody overnight at 4 °C, protein A/G magnetic beads 1 h at room temperature, blot with anti-NLRP3; cells treated with or without H2O2, MFG-E8, Nrf2 siRNA.

Sequences of proteins named here, by UniProt entry; tags and fusion partners are left off.
UniProt D4A523: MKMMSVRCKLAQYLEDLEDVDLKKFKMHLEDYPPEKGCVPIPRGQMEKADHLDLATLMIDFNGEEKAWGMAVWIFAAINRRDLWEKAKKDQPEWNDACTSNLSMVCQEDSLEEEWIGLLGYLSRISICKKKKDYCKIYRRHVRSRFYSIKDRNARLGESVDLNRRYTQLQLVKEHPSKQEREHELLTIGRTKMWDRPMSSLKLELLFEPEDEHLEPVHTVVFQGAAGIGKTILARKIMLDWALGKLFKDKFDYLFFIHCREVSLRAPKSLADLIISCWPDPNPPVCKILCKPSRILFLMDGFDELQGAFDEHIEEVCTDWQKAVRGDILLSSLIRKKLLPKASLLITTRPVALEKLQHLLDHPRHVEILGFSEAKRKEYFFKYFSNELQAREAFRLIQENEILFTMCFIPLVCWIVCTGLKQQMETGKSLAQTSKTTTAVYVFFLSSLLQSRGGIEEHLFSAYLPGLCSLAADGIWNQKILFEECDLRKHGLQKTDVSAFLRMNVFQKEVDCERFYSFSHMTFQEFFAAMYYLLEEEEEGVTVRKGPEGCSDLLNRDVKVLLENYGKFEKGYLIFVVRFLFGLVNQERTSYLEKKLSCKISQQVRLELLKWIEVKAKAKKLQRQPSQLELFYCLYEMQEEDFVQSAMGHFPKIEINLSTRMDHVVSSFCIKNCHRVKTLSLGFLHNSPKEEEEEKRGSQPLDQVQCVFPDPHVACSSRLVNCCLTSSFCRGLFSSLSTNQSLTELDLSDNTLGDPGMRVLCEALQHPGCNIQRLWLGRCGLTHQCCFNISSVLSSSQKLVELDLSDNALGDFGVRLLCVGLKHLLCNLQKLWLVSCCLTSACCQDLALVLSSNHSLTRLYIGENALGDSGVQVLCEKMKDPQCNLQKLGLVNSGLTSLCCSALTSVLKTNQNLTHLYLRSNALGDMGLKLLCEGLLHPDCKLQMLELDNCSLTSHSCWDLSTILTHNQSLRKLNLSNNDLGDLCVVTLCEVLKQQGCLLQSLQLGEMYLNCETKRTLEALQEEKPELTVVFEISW

The values below come from publication PMC9018842.

Results are given in words; binding and its absence hold for the method and conditions named. In cells and extracts the contact can be indirect. Some results given as binding are weak or reduced against the parent protein; the word gives no strength.

As for NLRP3 (from UniProt D4A523 1-1035), the binding entry was “binds”.
